For 63 compounds, cell number change and AC50 results are on record in PubChem BioAssay AID2685 (National Center for Advancing Translational Sciences (NCATS), 2010).

The list shows a part of the results. Shown are side measurements of this screen, not its main read-out; they come without a call. Most of these compounds were active or inconclusive in the main read-out, so they are no random draw. Words in brackets tell the shape of the fitted curve; partial curves, single points and poor fits give uncertain potencies.

The nature of the assay: qHTS Assay for Lipid Storage Modulators in Drosophila S3 Cells.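 For cell number change: cells counted by Cell Tracker Red CMTPX staining in the red channel.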 As to conditions: BODIPY lipid droplet fluorescence, 18-24 h; for cell number change: measured here: cell count max response, cells fed with added oleic acid. In short, it runs like this:
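Drosophila S3 cells got compounds at several concentrations plus oleic acid (400 uM solution). Laser-scanning cytometry with 488 nm excitation read lipid droplets at 500-530 nm and cells at 575-640 nm. Percent activity was relative to 20 uM Triacsin C.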
For orientation: qHTS replaces the single test concentration by a dilution series.

Where [1] appears, read: measured here: cell number channel AC50, cells fed with added oleic acid.
Where [2] appears, read: measured here: lipid fluorescence (Fed channel) AC50, cells fed with added oleic acid.

Usually AC50 stands for the concentration at which the activity in the assay is half-maximal. Read a low AC50 as greater potency. In the case of `COc1ccc(NC(=O)/C(C#N)=C/c2ccc3c(c2)n(C)c(=O)n3C)cc1`, the cell number change is -43.6%. Under setting [1], the AC50 is 10.3 µM [falling, partial curve, poor fit].
For `Cc1nc(-c2ccccc2)nc2[nH]ccc(=O)c12`, the cell number change was found to be 54%. Also, under setting [1], the half-maximal activity concentration (AC50) is 29.1 µM [rising, single point]. For the same compound, the AC50 under setting [2] was 18.4 µM [rising, partial curve].
As for `O=C(CSc1nc(-c2ccccc2)c(-c2ccccc2)o1)NCCCO`, the cell number change was found to be 10.6%. Besides, under setting [2], the AC50 is 29.1 µM [falling, single point].
For `Cc1ccc2c(C)c(C(=O)N3CCN(Cc4ccccn4)CC3)oc2c1C`, the cell number change was 31.7%. In addition, the concentration at half-maximal activity (AC50) under setting [1] was 23.1 µM [rising, partial curve].
For the compound `CS(=O)(=O)Nc1ccccc1C(=O)c1ccccc1`, the cell number change is 10.5%.
On to `COc1ccc(-c2csc(NC(=S)NC(=O)c3ccc(S(=O)(=O)N(C)C)cc3)n2)cc1OC`, for which the cell number change is -23.9%. Moreover, the AC50 under setting [2] is 1.46 µM [falling, single point].
Consider `NC(=O)c1nsc(C(=O)N(CC(=O)NCc2ccc(F)cc2)Cc2ccco2)c1N`, for which the cell number change was 27.1%. In addition, under setting [2], the half-maximal activity concentration (AC50) is 3.66 µM [rising, single point].
As for `COc1ccc(CNCCc2ccc([N+](=O)[O-])cc2)c(OC)c1OC`, the cell number change came out at 19.3%. Besides, the AC50 under setting [2] is 6.51 µM [rising, single point].
As to `O=C(Nc1nnc(C2=COCCO2)o1)c1ccc(Cl)cc1`, the cell number change was -7.33%. For the same compound, under setting [2], the half-maximal activity concentration (AC50) is 2.31 µM [rising, full curve].
For `COc1cc(OC)cc(C(=O)NCCNc2nc3cc(C)cc(C)c3cc2C#N)c1`, the cell number change was -18.8%.
Regarding `CC(C)Oc1cccc(C(=O)O)c1`, the AC50 under setting [2] was 29.1 µM [falling, single point].
For `Nc1ncnc(Nc2ccccc2Cl)n1`, the cell number change is -24.9%. In addition, the AC50 under setting [2] was 0.0731 µM [falling, partial curve, poor fit].
As for `O=C(Nc1ccc(-c2nc3c(ccc4ccccc43)o2)cc1)c1ccco1`, the cell number change is -14.3%. The AC50 under setting [1] was 1.16 µM [rising, partial curve]. Also, the half-maximal activity concentration (AC50) under setting [2] was 0.58 µM [rising, partial curve, poor fit].
With `CCC(C(=O)Nc1ccccc1N1CCCC1)c1ccccc1` (stereo unspecified), the cell number change was found to be 14.6%. Moreover, under setting [2], the AC50 is 6.51 µM [rising, single point].
For the compound `O=C(N/N=C/c1ccccn1)c1cc(-c2ccc(Cl)cc2)nc2ccccc12`, the cell number change was 0.308%. Also, under setting [2], the AC50 is 2.06 µM [rising, partial curve].
Consider `COc1ccc2oc(=Nc3ccccc3)c(-c3nc4ccccc4[nH]3)cc2c1`, for which the cell number change was -39.1%. Moreover, under setting [1], the half-maximal activity concentration (AC50) is 9.2 µM [falling, partial curve]. Besides, the half-maximal activity concentration (AC50) under setting [2] is 16.4 µM [falling, partial curve].
Turning to `CCOC(=O)c1c(-c2cccs2)csc1NC(=O)c1ccncc1`, the cell number change was -1.4%. Besides, under setting [2], the AC50 was 0.366 µM [rising, full curve, poor fit].
Consider `Cc1nc2ccc(NC(=O)N3CCC(c4ccccc4)C3)cc2nc1C` (stereo unspecified), for which the cell number change worked out at 209%. Also, the AC50 under setting [2] is 29.1 µM [rising, single point].
`O=C(Nc1nccs1)c1ccc(Br)c(S(=O)(=O)N2CCCC2)c1`: the cell number change is -56.9%. Besides, the AC50 under setting [1] is 20.6 µM [falling, partial curve, poor fit].
`c1ccc(-c2cc3ccccc3[nH]2)cc1`: the cell number change is -22%. Further, the AC50 under setting [2] is 23.1 µM [falling, partial curve].
As for `CCOc1ccc(Oc2ccc(Cl)cc2NC(=O)C2=COCCO2)cc1`, the cell number change is -3.36%.
As to `CC[C@@](C)(NS(=O)(=O)OCC(Cl)(Cl)Cl)c1ccccc1`, the cell number change was determined as 9.58%. For the same compound, the AC50 under setting [2] was 25.9 µM [rising, single point].
Turning to `O=[N+]([O-])c1cnccc1NC1CCCCC1`, the cell number change was -19.8%.
In the case of `N#C/C(=C/c1ccc(Sc2nc3ccccc3[nH]2)o1)c1ccccc1F`, the cell number change was 0.804%. Also, under setting [1], the AC50 was 1.03 µM [rising, partial curve]. In addition, the AC50 under setting [2] was 0.259 µM [rising, full curve, poor fit].
Consider `COc1cccc(CN(C)C(=O)Cc2c[nH]c3ccccc23)c1`, for which the cell number change is 19.4%. Besides, the AC50 under setting [2] was 4.61 µM [rising, full curve, poor fit].
For `Cc1ccc(NCc2nnc(SCCN3CCCCC3)n2CC2CCCO2)c(C)c1` (stereo unspecified), the cell number change was -11.3%. For the same compound, under setting [2], the AC50 is 16.4 µM [rising, partial curve, poor fit].
Regarding `CCCCOc1ccc(CNC(=O)NS(=O)(=O)c2ccc(OCC(C)C)cc2)cc1`, the cell number change was found to be 18.3%.
As for `CC(C)c1ccc(/C=N/Nc2cc(N3CCOCC3)nc(N3CCOCC3)n2)cc1`, the cell number change was 12.1%.
With `CCNc1nc(SC(C)C(=O)OC)nc(N2CCOCC2)n1` (stereo unspecified), the cell number change was -24.7%. In addition, under setting [1], the AC50 is 1.3 µM [falling, full curve, poor fit].
Take `O=C(CN(Cc1ccc(Br)cc1)S(=O)(=O)c1ccccc1)NCc1cccnc1`: the cell number change was 1.66%. In addition, the AC50 under setting [2] was 3.55 µM [rising, single point].
Turning to `N#CCCn1c(SCC(=O)NCC2CCCO2)nc2ccccc21` (stereo unspecified), the cell number change was found to be 9.21%. Also, under setting [2], the AC50 was 23.1 µM [falling, single point].
Regarding `CCOC(=O)c1ccccc1NC(=O)c1cccc2c1C(=O)N(C1CCN(C(=O)OCC)CC1)C2`, the cell number change worked out at 28.7%. The AC50 under setting [2] is 29.1 µM [rising, single point].
In the case of `CCc1nc(SCC(=O)N2CC(=O)Nc3ccccc32)c2c(C)c(C)sc2n1`, the cell number change is -15.9%. Besides, the AC50 under setting [2] is 13 µM [falling, partial curve, poor fit].
Take `NC(=O)C1CCN(C(=O)CN(c2cccc(C(F)(F)F)c2)S(=O)(=O)c2ccccc2)CC1`: the cell number change is -6.65%. Moreover, the AC50 under setting [1] is 0.0326 µM [falling, full curve, poor fit].
On to `COc1cc(/C=C(\CC(=O)O)c2nc3ccccc3s2)cc(OC)c1O`, for which the cell number change is 29.4%. Further, the AC50 under setting [2] was 6.51 µM [falling, single point].
For the compound `COc1ccc(CCNC(=O)CSc2ccc(-c3ccccc3)nn2)cc1OC`, the cell number change was -13.1%. Under setting [2], the AC50 is 10.3 µM [falling, single point].
Turning to `COc1ccccc1NC(=O)COC(=O)c1cnc(C)cn1`, the cell number change stood at 28.1%.
Regarding `O=C(CSc1c2c(nc3ccc(Cl)cc13)CCCC2)NCc1ccco1`, the AC50 under setting [1] is 0.13 µM [rising, full curve, poor fit].
Take `CCC1CCCCN1S(=O)(=O)c1ccc2[nH]c(=O)ccc2c1` (stereo unspecified): the cell number change is 13.3%. Moreover, the AC50 under setting [2] was 16.4 µM [falling, single point].
Turning to `Cc1cc(C(=O)NCC(=O)OC(C(=O)Nc2cc(C(F)(F)F)ccc2Cl)c2ccccc2)ccc1[N+](=O)[O-]` (stereo unspecified), the concentration at half-maximal activity (AC50) is, setting by setting: under setting [1], 1.46 µM [rising, partial curve]; under setting [2], 1.64 µM [rising, partial curve].
For the compound `COc1ccc(CNC(=O)C(c2cccc(C)c2)N(C(=O)c2csnn2)C2CC2)cc1` (stereo unspecified), under setting [2], the half-maximal activity concentration (AC50) was 1.84 µM [falling, partial curve].
As for `COc1ccc(CC(=O)NCCc2cnc[nH]2)cc1`, the cell number change is -24.8%.
With `Cc1cc(OCC(=O)O/N=C(\N)Cc2cccs2)ccc1Br`, the cell number change was 113%. For the same compound, the AC50 under setting [2] is 23.1 µM [rising, single point].
On to `CC(=O)Nc1ccc(NC(=O)C(C)OC(=O)CC2CCCCC2)cc1` (stereo unspecified), for which the cell number change was -2.36%.
For the compound `O=C(O)c1ccccc1C(=O)OCc1ccccc1`, the cell number change was -31.9%. In addition, under setting [1], the concentration at half-maximal activity (AC50) was 1.46 µM [falling, full curve, poor fit]. The AC50 under setting [2] is 2.59 µM [falling, partial curve].
For `CCOC(=O)Cn1c(=O)c2c(nc(N3CCCCC3)n2Cc2ccccc2)n(C)c1=O`, the cell number change is -22.1%. Besides, the AC50 under setting [1] is 0.00461 µM [falling, full curve, poor fit].
Regarding `O=C(NCc1cccnc1)C1CCCN(S(=O)(=O)c2ccccc2)C1` (stereo unspecified), the cell number change was -6.74%. In addition, the AC50 under setting [2] is 0.731 µM [falling, single point].
With `O=c1c2ccccc2nc(/C=C/c2ccc([N+](=O)[O-])cc2)n1CCCO`, the cell number change came out at 7.33%. Under setting [2], the AC50 was 11.6 µM [rising, partial curve].
As for `CSCCC(NC(=O)c1ccccc1)C(=O)N/N=C(\C)Cc1ccccc1` (stereo unspecified), the cell number change was 16.4%. For the same compound, the AC50 under setting [1] was 3.26 µM [rising, single point].
Regarding `N#CCSc1nnc(-c2ccc3c(c2)OCO3)o1`, the cell number change worked out at 12.6%. Also, under setting [2], the AC50 was 11.6 µM [rising, partial curve, poor fit].
For `CC(C)Cc1cc(C(=O)N(C)C2CCCN(Cc3ccccc3F)C2)n(C)n1` (stereo unspecified), the cell number change came to 14.7%. The AC50 under setting [2] was 29.1 µM [rising, single point].
Take `CC(C)CN1C(=O)C(=O)N(CC(=O)NCc2ccc3c(c2)OCO3)C1=O`: the cell number change was determined as 3.33%.
For the compound `NC(=O)NC(CC(=O)NNC(=O)c1ccccn1)c1ccc(Cl)cc1` (stereo unspecified), the cell number change was -1.81%.
On to `C/C(=N\NC(=O)c1cccc(Cl)c1)C1C(=O)c2ccccc2C1=O`, for which the AC50 under setting [1] was 0.0291 µM [rising, full curve, poor fit].
For the compound `O=C(CC1S/C(=N/N=C2CCCCCC2)NC1=O)Nc1ccccc1C(F)(F)F` (stereo unspecified), the cell number change is -38.1%. Also, the AC50 under setting [1] is 20.6 µM [falling, partial curve, poor fit].
On to `Cc1ccc(C)c(NS(=O)(=O)c2ccc(-c3cnc(C4CC4)o3)cc2)c1`, for which the cell number change is -2.06%. Further, under setting [2], the AC50 was 18.4 µM [falling, single point].
Turning to `O=C(OCC(=O)C12CC3CC(CC(C3)C1)C2)c1cccnc1Cl`, the cell number change was -16.5%. Besides, the AC50 under setting [2] is 20.6 µM [falling, single point].
Consider `COc1ccc(/C=N/n2cnc3c([nH]c4ccc(C)cc43)c2=O)cc1CN1CCCC1`, for which the cell number change was -47.6%. The AC50 under setting [1] was 29.1 µM [falling, single point]. The AC50 under setting [2] is 29.1 µM [falling, single point].
With `O=C(COC(=O)c1ccccn1)NCc1ccccc1`, the cell number change is -32.6%. Further, the AC50 under setting [1] is 18.4 µM [falling, single point]. Further, under setting [2], the concentration at half-maximal activity (AC50) is 29.1 µM [falling, single point].
Take `CC(C)Cn1c(SCC(=O)N2CCN(S(=O)(=O)c3ccccc3)CC2)nc2ccccc21`: under setting [2], the AC50 is 32.6 µM [falling, single point].
As for `COc1ccccc1/C=N/NC(=O)C(C)Cn1cnc2ccccc21` (stereo unspecified), the cell number change was determined as 11.2%. Besides, under setting [2], the AC50 is 13 µM [rising, partial curve].
Consider `CC(C)OCCCNC(=O)c1ccncc1`, for which the cell number change was 2.79%.
In the case of `COc1cccc2cc(C(=O)C3=C(O)C(=O)N(CCN4CCOCC4)C3c3ccc(C(C)(C)C)cc3)oc12` (stereo unspecified), the cell number change was -8.85%. In addition, the AC50 under setting [2] is 0.58 µM [rising, single point].
